According to the supplement of paper PMC6078165:
Values are relative to the signal before dosing, not to a vehicle control; the signal also falls without drug.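 Labels refer to human fibroblasts, largely primary: uterine (C12385, HUF), lung (H6013), bone (Hs27A), adrenal (HADF), skin (WS1), plus mammary HMF and breast cancer-associated Hs343T. Cancer lines are basal-like or mesenchymal-like triple-negative breast cancer. The paper counts as hits responses shifting over 3x the replicate standard deviation. The tissue of the other fibroblasts is not given here.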 Numbered stars: 1 amine (or outer) side, 2 acyl side, 3 side chain; on linkers, the order of the positions; unused ones are H or OH. Bridge positions count the residues as written; N and C are the ends. Square brackets hold non-standard residues; d marks the D form. Peptide text beside a SMILES is read from it. I, II: the chains in the order shown. Actinocin(9to1) = Cc1c2oc3c(C)ccc(C(=O)[*:1])c3nc-2c(C(=O)[*:2])c(N)c1=O; NMeV = CN[C@H](C(=O)O)C(C)C; Sar = CNCC(=O)O

System: BT20
Experiment: relative JC-1 red fluorescence (viability) vs pre-drug, coculture with fibroblast (fraction); higher = more viable cancer cells
Description: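 JC-1 labelled TNBC cells cocultured 1:1 (1,500 cells each) with CellTrace Violet stained primary or stromal fibroblasts in 384-well plates in FluoroBrite medium, treated with one of 42 anticancer drugs at 0.1, 1, 10 or 100 uM. JC-1 red fluorescence (mitochondrial integrity in cancer cells only) was read by plate reader every 8 h for 72 h. Values are normalised to each well's pre-drug value. The stock of one drug was tenfold lower, so its dose labels may be too high.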

Cc1c2oc3c(C)ccc(C(=O)N[C@@H]4C(=O)N[C@H](C(C)C)C(=O)N5CCC[C@H]5C(=O)N(C)CC(=O)N(C)[C@@H](C(C)C)C(=O)O[C@@H]4C)c3nc-2c(C(=O)N[C@@H]2C(=O)N[C@H](C(C)C)C(=O)N3CCC[C@H]3C(=O)N(C)CC(=O)N(C)[C@@H](C(C)C)C(=O)O[C@@H]2C)c(N)c1=O [Dactinomycin] (I: T[dV]P[Sar][NMeV] / II: T[dV]P[Sar][NMeV]; ester I:1-I:C, II:1-II:C; linker I:N-II:N via Actinocin(9to1))
relative JC-1 red fluorescence
Conditions	8 h	16 h	24 h	32 h	40 h	48 h	56 h	64 h	72 h
10 µM, coculture fibroblast: C12385	0.86382	0.753	0.684	0.583	0.514	0.488	0.486	0.486	0.492
10 µM, coculture fibroblast: H6013	0.9028	0.7465	0.722	0.609	0.589	0.576	0.597	0.596	0.592
10 µM, coculture fibroblast: H6019	0.838	0.674	0.592	0.528	0.462	0.449	0.434	0.429	0.431
10 µM, coculture fibroblast: H6076	0.927	0.834	0.673	0.6175	0.5885	0.568	0.5538	0.5535	0.5393
10 µM, coculture fibroblast: H6231	0.869	0.8073	0.646	0.573	0.543	0.516	0.484	0.47	0.465
10 µM, coculture fibroblast: HADF	0.958	0.772	0.714	0.594	0.594	0.571	0.593	0.596	0.582
10 µM, coculture fibroblast: HCFa	0.894	0.7997	0.727	0.618	0.594	0.581	0.604	0.609	0.595
10 µM, coculture fibroblast: HCPF	0.89	0.8782	0.737	0.668	0.633	0.603	0.579	0.579	0.557
10 µM, coculture fibroblast: HHSteC	0.887	0.768	0.727	0.621	0.611	0.581	0.584	0.581	0.566
10 µM, coculture fibroblast: HMF	0.843	0.827	0.592	0.48	0.448	0.415	0.407	0.395	0.388
10 µM, coculture fibroblast: HPFa	0.887	0.74702	0.7118	0.612	0.6039	0.5793	0.595	0.602	0.592
10 µM, coculture fibroblast: HUF	0.889	0.7634	0.668	0.571	0.531	0.501	0.501	0.494	0.493
10 µM, coculture fibroblast: Hs5	0.878	0.853	0.724	0.668	0.629	0.608	0.601	0.582	0.576
10 µM, coculture fibroblast: Hs27A	0.77183	0.9643	0.957	0.828	0.812	0.797	0.835	0.828	0.802
10 µM, coculture fibroblast: Hs343T	0.814	0.84	0.615	0.5399	0.503	0.473	0.462	0.457	0.447
10 µM, coculture fibroblast: WS1	0.8535	0.647	0.529	0.456	0.404	0.391	0.384	0.387	0.384
100 µM, coculture fibroblast: C12385	0.8115	0.689	0.632	0.582	0.517	0.502	0.49	0.487	0.481
100 µM, coculture fibroblast: H6013	0.915	0.816	0.757	0.673	0.64	0.617	0.615	0.588	0.575
100 µM, coculture fibroblast: H6019	0.7825	0.609	0.507	0.454	0.39	0.377	0.355	0.343	0.3391
100 µM, coculture fibroblast: H6076	0.898	0.8435	0.637	0.567	0.5174	0.486	0.4634	0.452	0.43588
100 µM, coculture fibroblast: H6231	0.962	0.799	0.626	0.56	0.529	0.495	0.464	0.448	0.437
100 µM, coculture fibroblast: HADF	0.905	0.759	0.6978	0.6	0.575	0.546	0.539	0.53	0.504
100 µM, coculture fibroblast: HCFa	0.876	0.728	0.665	0.585	0.555	0.535	0.544	0.53	0.518
100 µM, coculture fibroblast: HCPF	0.969	0.861	0.759	0.711	0.685	0.651	0.624	0.612	0.562
100 µM, coculture fibroblast: HHSteC	0.884	0.73	0.668	0.552	0.518	0.486	0.486	0.47	0.444
100 µM, coculture fibroblast: HMF	0.986	0.824	0.65	0.583	0.527	0.498	0.47	0.45	0.43
100 µM, coculture fibroblast: HPFa	0.842	0.68	0.611	0.51	0.482	0.447	0.453	0.447	0.431
100 µM, coculture fibroblast: HUF	0.8344	0.672	0.576	0.504	0.466	0.439	0.435	0.425	0.418
100 µM, coculture fibroblast: Hs5	0.838	0.8	0.644	0.57	0.538	0.498	0.5	0.482	0.466
100 µM, coculture fibroblast: Hs27A	0.955	0.918	0.849	0.863	0.837	0.735	0.709	0.736	0.754
100 µM, coculture fibroblast: Hs343T	0.931	0.759	0.557	0.493	0.471	0.443	0.413	0.414	0.39
100 µM, coculture fibroblast: WS1	0.807	0.63	0.554	0.485	0.423	0.403	0.385	0.364	0.355
